No constants are given. Whether binding was seen depends on the method and setting. In cells and extracts the contact can be indirect. Some binding calls cover weakened binding; strength is not graded here.

The chains behind the UniProt entries cited, without tags or fusion partners.
UniProt Q15717: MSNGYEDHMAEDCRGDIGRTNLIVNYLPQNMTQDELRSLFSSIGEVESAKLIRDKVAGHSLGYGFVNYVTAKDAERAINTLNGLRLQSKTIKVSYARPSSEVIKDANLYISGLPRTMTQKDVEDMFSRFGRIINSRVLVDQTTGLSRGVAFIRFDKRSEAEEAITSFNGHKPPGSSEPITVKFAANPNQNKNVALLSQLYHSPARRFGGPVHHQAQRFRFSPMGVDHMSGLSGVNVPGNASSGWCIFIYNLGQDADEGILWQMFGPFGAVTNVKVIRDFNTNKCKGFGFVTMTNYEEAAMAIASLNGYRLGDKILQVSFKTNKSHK
UniProt Q92879: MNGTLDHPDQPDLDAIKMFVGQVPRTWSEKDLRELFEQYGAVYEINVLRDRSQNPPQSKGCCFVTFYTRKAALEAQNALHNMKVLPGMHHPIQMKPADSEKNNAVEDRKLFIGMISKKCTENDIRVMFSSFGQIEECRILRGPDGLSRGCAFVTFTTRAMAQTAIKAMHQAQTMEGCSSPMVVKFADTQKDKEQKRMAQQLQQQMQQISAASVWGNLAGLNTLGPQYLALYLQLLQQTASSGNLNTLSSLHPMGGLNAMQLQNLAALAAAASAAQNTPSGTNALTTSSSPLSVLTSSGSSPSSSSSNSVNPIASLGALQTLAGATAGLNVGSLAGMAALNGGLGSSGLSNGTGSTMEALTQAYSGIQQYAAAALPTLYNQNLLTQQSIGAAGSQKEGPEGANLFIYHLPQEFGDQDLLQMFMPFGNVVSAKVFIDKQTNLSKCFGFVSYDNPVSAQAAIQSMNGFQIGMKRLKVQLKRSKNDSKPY
UniProt Q96AE4: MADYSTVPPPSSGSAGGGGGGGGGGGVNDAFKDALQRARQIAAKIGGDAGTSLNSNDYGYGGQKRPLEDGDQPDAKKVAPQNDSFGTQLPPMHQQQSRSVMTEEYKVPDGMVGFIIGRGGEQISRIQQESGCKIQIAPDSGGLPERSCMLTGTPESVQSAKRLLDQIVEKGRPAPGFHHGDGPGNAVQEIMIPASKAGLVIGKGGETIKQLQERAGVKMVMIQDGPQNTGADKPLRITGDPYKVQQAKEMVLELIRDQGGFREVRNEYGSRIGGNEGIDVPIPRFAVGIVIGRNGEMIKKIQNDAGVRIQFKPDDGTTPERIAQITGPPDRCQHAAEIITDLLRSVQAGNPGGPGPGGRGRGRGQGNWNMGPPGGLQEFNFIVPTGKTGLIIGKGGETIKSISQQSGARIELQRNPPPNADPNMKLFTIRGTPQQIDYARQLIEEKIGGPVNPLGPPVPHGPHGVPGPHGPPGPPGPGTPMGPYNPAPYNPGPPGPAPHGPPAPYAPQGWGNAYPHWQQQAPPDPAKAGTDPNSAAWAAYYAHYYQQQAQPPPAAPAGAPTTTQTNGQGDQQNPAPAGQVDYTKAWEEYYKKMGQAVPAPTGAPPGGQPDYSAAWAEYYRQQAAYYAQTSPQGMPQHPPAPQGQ

This assay concerns the target peptidyl-prolyl cis/trans isomerase NIMA-interacting 1 (Pin1) (human (endogenous in HEK293T)) (UniProt Q13526). In words: co-IP; endogenous Pin1 immunoprecipitated with anti-Pin1 antibody (anti-HA as control) from pre-cleared HEK293T lysate in RIPA buffer, Protein A/G magnetic beads, overnight at 4°C, with or without 10 μg/mL RNaseA; bound proteins detected by western blot.

For “ELAV-like protein 1 or Human antigen R (HuR) (from UniProt Q15717 1-326)”, the binding entry is on record as “binds”. The same measure for “Stem-Loop Binding Protein (SLBP) (from UniProt Q14493 1-270)”: “binds”; for CUGBP (from UniProt Q92879 1-486): “no binding”. In the case of FBP (from UniProt Q96AE4 1-644), the binding entry is on record as “no binding”.

The record behind these values is PMC3887067.
